## Primary screen of a compound library

Each number is a percent effect as filed. How 0% and 100% were set is not recorded. Most values in the screen are low, and negative values occur. Compounds were drawn at random from those tested, without regard to their results. Two or more numbers in one place are separate tests of the same structure; such repeats can differ widely.

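Whole-cell growth test on Mycobacterium tuberculosis, read after 3 days in glucose-containing 7H9 medium; the read-out is not stated. Compounds at 50 µM. The record gives no direction; compounds that gave an IC50 in retests scored well above the rest, so higher reads as more growth inhibition. Size under these conditions: about 69,000 compounds, about 760 of them at 50% or above in at least one test.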

| SMILES | effect |
|---|---|
| `O=C(O)C(F)(F)F.[H][C@]12CCC[C@@]1(COCC1CCOCC1)CN(C(=O)c1ccccn1)C2` | -6.811 |
| `CC(=O)N1CCN(Cc2ccc3c(c2)OCCO3)CC(O)C1` (stereo not drawn) | 3.157 and -24.33 |
| `CN1CCN(C2CCN(Cc3nc(-c4ccoc4)no3)CC2)C1=O` | -7.358 |
| `CCCS(=O)(=O)N(C)C(=O)CCc1ccsc1` | 0.5935 |
| `Cc1ccoc1CNCc1nnc2n1CC(C(F)(F)F)CC2` (stereo not drawn) | -32.34 |
| `CC(C)c1nc(CN(C)Cc2ncccc2C(=O)O)cs1` | 8.349 and -0.01792 |
| `CC(=O)c1cc(Br)cc(F)c1OCC(=O)NC(C)C` | -0.7564 |
| `O=C(O)C(F)(F)F.[H][C@@]12OCCN(Cc3csc(C)n3)[C@@]1([H])CC[C@H]2OCC(=O)N(C)C` | -26.35 |
| `CCCn1ccnc1CN1CCCC(O)(CN(C)C)CC1` (stereo not drawn) | -20.38 |
| `CCc1ccccc1Nc1noc2c1CN(C(=O)c1ccn(C)n1)CC2` | -11.18 |
| `NC(=O)C1=NC2=NS(=O)(=O)c3ccccc3N2N1Cc1ccccc1Cl` | -20.59 |
| `CN1CCN(C(=O)NCCNc2ncccn2)Cc2ccccc21` | 7.062 |
| `O=C(O)C(F)(F)F.[H][C@@]12COC[C@H](C(=O)Nc3cnccn3)[C@]1([H])CN(C1CCCC1)C2` | -3.194 |
| `[H][C@]12CC[C@]([H])(CN(C)C1)N(C(=O)c1ccc(-c3ccccc3OC)cc1)C2` | 1.64 and 23.83 |
| `NC(=O)c1cccc(CN2CCc3c(ncn3C3CC3)C2)c1` | -23.4 |
| `O=C(O)C(F)(F)F.O=C(c1ccccn1)N1CCCC2(CCN(c3ccsc3)C2=O)C1` (stereo not drawn) | 4.307 and -3.425 |
| `COc1cc(CSc2nnc(C)n2CC(N)=O)ccc1SC` | -24.98 |
| `CCn1cc(NC(=O)C(C)n2ncc(Cl)c2C)c(C(=O)NCC(C)C)n1` (stereo not drawn) | -13.98 |
| `CCn1cnc(NC(=O)N2CCCC(c3ccccc3)CC2)n1` (stereo not drawn) | 15.02 and 10.14 |
| `Cc1ccc(NC2CCN(C(=O)CCCc3ccccn3)CC2)nn1` | 4.107 |
| `CC(C)N(C)Cc1nnc2n1CCCN(S(=O)(=O)C1CC1)C2.O=C(O)C(F)(F)F` | -24.25 and -7.544 |
| `CC(C)c1nnc2ccc(N3CCC(C(=O)Nc4nccs4)CC3)nn12` | 25.59 |
| `Cc1cc(C(=O)N2CC[C@@]3(C[C@@H](NS(C)(=O)=O)CCO3)C2)no1` | -5.968 |
| `Cl.O=C(Nc1nc2c(s1)CNCC2)NC1CCCC1` | -15.7 |
| `Cc1cc(C)n(-c2ccc(C(=O)NCC(CO)Cc3cccs3)cc2)n1` (stereo not drawn) | 33.5 and 7.784 |
| `CC(=O)N1CCC(c2cncc(N3CCOCC3)n2)CC1` | 4.448 |
| `CC(C)C[C@H]1CN(c2nc3c(cc2C(N)=O)CCC3)CC[C@@]1(C)O` | 0.984 and 16.7 |
| `O=C(NCCNc1ncccn1)C1CC(=O)N(CC(F)(F)F)C1` (stereo not drawn) | -9.12 |
| `NC(=O)NC(=O)Cn1ccc2sccc2c1=O` | -3.188 and 5.201 |
| `O=C(O)C(F)(F)F.[H][C@]12OCCC[C@]1([H])N(C(=O)COC)C[C@H]2OCc1cccnc1` | -42.44 |
| `CCc1nnsc1C(=O)NCc1nnc2n1CCC2` | -3.292 |
| `CS(=O)(=O)c1cc(S(N)(=O)=O)ccc1NCC1CCCO1` (stereo not drawn) | -25.22 |
| `CCC(CC)c1cc(C(=O)N2CCN(CC(N)=O)CC2)on1` | 1.205 and 0.4293 |

Repeated from the top, 4 entries:

SMILES,effect
O=C(O)C(F)(F)F.[H][C@]12CCC[C@@]1(COCC1CCOCC1)CN(C(=O)c1ccccn1)C2,-6.811
CC(=O)N1CCN(Cc2ccc3c(c2)OCCO3)CC(O)C1 (stereo not drawn),3.157 and -24.33
CN1CCN(C2CCN(Cc3nc(-c4ccoc4)no3)CC2)C1=O,-7.358
CCCS(=O)(=O)N(C)C(=O)CCc1ccsc1,0.5935

From ChEMBL document CHEMBL3988442, “University of Dundee, Small-Polar-MMV Screening Library” (2021).